# Results are given in words; binding and its absence hold for the method and conditions named. In cells and extracts the contact can be indirect. Some binding calls cover weakened binding; strength is not graded here.
# By UniProt entry, the sequences of proteins in these tests, tags left out.
# UniProt Q9QZQ1: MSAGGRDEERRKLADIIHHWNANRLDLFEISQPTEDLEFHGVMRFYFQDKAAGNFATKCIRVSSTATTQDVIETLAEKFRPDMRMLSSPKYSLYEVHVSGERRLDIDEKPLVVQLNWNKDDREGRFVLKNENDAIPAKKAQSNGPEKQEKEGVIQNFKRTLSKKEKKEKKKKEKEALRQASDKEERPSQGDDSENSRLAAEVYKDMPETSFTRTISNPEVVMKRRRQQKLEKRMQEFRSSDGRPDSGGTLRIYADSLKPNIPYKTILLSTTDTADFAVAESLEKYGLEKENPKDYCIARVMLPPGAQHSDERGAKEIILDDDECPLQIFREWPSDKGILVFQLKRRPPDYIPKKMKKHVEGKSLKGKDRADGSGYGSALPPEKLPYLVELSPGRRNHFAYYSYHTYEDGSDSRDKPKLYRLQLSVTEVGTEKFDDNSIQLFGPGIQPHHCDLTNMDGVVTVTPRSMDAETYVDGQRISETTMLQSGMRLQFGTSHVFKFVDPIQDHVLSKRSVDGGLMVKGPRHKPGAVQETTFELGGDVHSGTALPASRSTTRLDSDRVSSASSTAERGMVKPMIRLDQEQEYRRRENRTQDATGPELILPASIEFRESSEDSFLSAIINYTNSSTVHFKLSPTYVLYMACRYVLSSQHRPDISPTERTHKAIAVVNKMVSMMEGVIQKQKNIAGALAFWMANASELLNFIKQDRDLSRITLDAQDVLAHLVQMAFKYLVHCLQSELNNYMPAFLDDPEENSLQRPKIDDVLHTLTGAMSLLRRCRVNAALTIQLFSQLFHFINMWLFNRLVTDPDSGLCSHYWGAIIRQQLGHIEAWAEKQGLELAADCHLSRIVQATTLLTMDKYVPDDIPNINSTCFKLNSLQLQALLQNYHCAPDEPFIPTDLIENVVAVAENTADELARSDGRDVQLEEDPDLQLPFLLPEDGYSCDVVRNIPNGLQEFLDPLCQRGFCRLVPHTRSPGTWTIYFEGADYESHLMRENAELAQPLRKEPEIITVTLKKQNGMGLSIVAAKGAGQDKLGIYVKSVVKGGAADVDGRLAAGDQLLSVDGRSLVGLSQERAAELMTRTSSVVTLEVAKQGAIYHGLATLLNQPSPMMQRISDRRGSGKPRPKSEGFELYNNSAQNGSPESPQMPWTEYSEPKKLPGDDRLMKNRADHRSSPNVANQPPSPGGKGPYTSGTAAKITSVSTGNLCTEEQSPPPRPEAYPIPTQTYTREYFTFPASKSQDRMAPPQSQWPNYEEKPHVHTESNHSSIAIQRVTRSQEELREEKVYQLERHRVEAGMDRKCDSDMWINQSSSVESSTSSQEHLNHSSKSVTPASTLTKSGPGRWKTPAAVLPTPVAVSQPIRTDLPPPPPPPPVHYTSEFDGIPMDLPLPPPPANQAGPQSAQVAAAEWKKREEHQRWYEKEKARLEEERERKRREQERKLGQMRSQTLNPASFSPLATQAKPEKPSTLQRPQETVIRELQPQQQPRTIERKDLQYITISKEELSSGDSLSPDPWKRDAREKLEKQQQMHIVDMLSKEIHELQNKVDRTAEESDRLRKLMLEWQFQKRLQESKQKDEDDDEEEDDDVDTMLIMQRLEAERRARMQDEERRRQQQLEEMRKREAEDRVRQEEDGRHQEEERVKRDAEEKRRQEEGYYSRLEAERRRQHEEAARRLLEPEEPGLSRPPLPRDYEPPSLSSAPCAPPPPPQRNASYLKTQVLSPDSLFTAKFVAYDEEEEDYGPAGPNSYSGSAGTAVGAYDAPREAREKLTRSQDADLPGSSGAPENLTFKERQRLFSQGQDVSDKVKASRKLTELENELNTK
# UniProt Q6RHR9: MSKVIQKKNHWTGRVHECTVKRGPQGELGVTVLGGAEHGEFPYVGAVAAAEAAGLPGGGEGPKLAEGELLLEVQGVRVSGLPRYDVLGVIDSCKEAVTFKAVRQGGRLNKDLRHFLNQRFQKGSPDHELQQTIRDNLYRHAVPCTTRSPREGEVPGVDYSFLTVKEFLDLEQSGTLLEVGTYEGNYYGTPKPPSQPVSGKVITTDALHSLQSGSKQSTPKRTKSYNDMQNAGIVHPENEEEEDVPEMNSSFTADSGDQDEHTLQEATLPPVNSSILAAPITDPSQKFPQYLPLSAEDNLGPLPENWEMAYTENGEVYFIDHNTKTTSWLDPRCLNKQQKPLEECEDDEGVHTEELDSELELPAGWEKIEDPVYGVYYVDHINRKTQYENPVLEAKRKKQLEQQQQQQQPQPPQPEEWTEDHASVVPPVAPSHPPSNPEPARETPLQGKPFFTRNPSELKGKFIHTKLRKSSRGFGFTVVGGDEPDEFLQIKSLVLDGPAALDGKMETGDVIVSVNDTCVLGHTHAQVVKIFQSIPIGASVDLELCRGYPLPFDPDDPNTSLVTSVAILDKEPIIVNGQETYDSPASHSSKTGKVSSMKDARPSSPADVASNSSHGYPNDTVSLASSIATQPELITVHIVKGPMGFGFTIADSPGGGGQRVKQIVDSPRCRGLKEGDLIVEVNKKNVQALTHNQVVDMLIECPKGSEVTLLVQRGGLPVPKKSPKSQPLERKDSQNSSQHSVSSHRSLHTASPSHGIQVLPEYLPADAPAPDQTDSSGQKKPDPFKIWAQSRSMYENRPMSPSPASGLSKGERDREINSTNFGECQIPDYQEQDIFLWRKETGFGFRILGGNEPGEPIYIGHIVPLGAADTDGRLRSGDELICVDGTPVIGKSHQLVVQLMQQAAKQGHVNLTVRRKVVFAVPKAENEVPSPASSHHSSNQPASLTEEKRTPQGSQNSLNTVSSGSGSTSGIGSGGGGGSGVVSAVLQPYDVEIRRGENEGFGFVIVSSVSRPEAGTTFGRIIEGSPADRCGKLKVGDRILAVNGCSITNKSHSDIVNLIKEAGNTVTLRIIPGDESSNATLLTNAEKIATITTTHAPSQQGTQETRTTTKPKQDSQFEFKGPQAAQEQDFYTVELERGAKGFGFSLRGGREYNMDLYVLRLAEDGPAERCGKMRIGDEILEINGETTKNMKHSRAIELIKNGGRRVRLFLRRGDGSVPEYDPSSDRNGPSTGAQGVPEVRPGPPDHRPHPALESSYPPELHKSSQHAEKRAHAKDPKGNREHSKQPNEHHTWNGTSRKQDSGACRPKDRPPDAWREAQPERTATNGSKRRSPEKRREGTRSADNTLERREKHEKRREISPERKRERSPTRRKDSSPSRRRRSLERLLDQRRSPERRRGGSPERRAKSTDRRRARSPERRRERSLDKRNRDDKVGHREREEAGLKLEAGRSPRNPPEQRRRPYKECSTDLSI
# T1: ZO-2 (UniProt Q9Z0U1)
# T1 sequence: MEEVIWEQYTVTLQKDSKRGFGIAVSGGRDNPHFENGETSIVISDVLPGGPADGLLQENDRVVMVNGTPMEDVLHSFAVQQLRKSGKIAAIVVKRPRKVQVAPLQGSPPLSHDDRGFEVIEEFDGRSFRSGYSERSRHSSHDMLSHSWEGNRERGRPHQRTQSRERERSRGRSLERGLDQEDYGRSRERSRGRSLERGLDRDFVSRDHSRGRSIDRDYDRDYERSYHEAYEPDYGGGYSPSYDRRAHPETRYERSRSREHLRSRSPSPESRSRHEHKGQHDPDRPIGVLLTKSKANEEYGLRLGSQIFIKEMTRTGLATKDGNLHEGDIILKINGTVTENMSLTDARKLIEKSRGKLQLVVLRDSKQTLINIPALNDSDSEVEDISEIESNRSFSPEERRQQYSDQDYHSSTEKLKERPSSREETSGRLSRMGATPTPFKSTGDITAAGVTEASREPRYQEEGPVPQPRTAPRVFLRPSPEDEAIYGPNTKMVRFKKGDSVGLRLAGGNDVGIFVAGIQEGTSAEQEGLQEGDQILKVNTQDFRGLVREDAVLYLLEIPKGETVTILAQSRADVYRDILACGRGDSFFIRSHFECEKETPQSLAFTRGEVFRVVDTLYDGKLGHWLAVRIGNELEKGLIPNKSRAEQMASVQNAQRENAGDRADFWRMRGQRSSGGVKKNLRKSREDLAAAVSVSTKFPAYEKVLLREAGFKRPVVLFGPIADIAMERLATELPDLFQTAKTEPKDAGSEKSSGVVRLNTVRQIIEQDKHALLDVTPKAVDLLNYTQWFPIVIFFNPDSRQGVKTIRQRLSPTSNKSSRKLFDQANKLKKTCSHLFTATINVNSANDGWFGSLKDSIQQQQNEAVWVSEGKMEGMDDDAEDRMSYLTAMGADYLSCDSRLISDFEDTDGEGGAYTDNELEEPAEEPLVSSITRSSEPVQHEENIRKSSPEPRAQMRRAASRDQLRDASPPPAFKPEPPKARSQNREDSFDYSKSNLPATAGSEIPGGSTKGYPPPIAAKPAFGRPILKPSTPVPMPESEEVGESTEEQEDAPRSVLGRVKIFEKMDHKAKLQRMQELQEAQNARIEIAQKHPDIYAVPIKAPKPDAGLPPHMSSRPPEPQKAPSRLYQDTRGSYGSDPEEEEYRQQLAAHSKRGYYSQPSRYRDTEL
# T2: MAGI-3 (UniProt Q9EQJ9)
# T2 sequence: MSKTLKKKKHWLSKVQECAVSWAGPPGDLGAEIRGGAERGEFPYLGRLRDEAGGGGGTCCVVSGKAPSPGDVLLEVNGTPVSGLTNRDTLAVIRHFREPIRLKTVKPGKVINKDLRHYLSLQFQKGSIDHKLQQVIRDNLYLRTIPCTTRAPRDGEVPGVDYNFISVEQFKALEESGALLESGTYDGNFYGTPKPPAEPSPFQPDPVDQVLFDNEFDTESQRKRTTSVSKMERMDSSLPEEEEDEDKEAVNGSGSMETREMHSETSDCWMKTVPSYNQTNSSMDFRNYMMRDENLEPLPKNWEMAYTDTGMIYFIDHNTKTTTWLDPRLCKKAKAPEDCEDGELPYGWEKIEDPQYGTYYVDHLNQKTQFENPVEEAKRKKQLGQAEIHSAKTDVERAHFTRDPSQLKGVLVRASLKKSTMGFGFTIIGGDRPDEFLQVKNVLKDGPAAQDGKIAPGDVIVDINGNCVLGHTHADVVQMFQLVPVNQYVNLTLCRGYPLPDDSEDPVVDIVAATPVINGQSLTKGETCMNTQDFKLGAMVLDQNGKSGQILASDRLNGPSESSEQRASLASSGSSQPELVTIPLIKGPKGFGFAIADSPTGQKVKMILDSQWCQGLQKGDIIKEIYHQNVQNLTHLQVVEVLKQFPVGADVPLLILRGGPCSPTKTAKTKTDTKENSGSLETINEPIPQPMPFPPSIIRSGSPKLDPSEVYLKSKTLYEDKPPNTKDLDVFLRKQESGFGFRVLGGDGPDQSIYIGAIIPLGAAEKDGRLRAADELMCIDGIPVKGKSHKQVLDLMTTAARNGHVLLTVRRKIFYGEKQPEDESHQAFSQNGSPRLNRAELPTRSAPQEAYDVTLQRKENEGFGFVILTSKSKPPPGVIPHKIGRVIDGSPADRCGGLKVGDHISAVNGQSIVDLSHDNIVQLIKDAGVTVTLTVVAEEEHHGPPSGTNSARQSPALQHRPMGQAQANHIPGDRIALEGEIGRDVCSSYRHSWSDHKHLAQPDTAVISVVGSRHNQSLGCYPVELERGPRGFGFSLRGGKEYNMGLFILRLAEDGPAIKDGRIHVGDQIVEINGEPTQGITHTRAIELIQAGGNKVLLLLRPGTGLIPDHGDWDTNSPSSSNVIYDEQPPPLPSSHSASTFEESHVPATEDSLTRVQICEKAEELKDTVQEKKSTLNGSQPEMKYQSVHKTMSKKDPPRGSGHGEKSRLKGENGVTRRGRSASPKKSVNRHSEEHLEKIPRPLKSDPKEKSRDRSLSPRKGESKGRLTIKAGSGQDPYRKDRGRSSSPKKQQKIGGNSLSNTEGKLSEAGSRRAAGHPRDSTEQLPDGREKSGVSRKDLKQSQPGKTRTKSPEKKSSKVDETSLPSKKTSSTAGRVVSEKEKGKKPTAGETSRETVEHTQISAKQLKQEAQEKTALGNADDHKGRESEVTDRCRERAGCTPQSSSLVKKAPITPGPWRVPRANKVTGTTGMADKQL
# Experiments:
# Assay in all cases: co-IP; FLAG immunoprecipitation in a heterologous expression system; anti-DYKDDDDK mAb beads 2 h; 20 mM Tris-HCl pH 7.5, 150 mM NaCl, 1% Triton X-100; blots with anti-FLAG, anti-HA, anti-GFP
# [1] = biological target: T1, ZO-2
# [2] = biological target: afadin (UniProt Q9QZQ1)
# [3] = biological target: T2, MAGI-3
binding [1],binding [2],binding [3],Molecule
binds,binds,–,MAGI-1 (from UniProt Q6RHR9 1-1471)
–,–,binds,"RASSF10, full-length (FL) (protein, UniProt Q8BL43 1-508) MDPSEKKISVWICQEEKLVSGLSRRTTCSDVVRVLLEDGCRRRCRQRRGQRRGLTEDPSGQLELPEPPDENDEDDDDAMPPGMLCGPPQCYCIVEKWRGFERILPNKTRILRLWTAWGDEQENVRFVLVRSEASLPNAGPRSAEARVVLSRERPCLARGAPARPSLALTQEKQRRVVRKAFRKLAKLNRRRQQQPSSPCSSTSSSTASSCSSSARTHESASVERMETLVHLVLSQDHTIRQQVQRLRELDREIDRYEAKVHLDRMRRHGVNYVQDTYLVGAGIDLDGQTPEGEPEDATLEEKGTEPAAPLDSEAQAAALEELARRCDDLVRLQEERAQQEELLERLSAEIQEELNQRWMQRRNEELAAREESLEPDGGPDGELLLEQERVRTQLSTSLYIGLRLSTDLEAVKADLDYSQQQRDIKERELQGLLQSLHTFEQTVVHDGALGSSGPSREPQPQTCAEMWVDQARGLAKSCPGNDEDSDTGLSSMHSQDSDSVPPVCESLV"
